Conditions: room temperature

SMILES | concentration producing a translucent gel or soft-solid material in water | concentration up to which readily soluble in water [weight %]
CCCCCCCCCCCCCCCC[n+]1ccccc1 [CPC, cetylpyridinium chloride, reference compound] | greater than 40 weight % | ≥ 25
[Cl-].[Cl-].[Zn+2] [ZnCl2, zinc chloride] | – | ≥ 75

— patent US11690833B2, “Personal care compositions” (priority 2017, dated 2023)
